This is one part of the list. Shown are side measurements of this screen, not its main read-out; they come without a call. Most of these compounds were active or inconclusive in the main read-out, so they are no random draw. The note in brackets gives the kind of curve behind each potency; many fits are weak.
Assay: qHTS Assay for Modulators of Lamin A Splicing
Settings: HeLa LMNA splicing GFP/RFP minigene ratio, 48 h
Procedure, shortened: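 Read-out is the ratio of GFP to DsRed2 object intensity, acquired by 488 nm laser-scanning cytometry on HeLa lamin A-EGFP minigene reporter cells. Compound incubation 48 hrs at 37 °C in Opti-MEM with 2% FBS; DMSO 0.5% final.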

[1] = measured here: RFP viability control channel
[2] = measured here: GFP splicing reporter channel

CC(C)n1nc(C(=O)Nc2nc3ccccc3[nH]2)c2ccccc2c1=O
AC50 [1]: 7.94 µM [rising, partial curve, poor fit]

N#Cc1ccccc1N=Cc1ccc(Br)cc1
AC50 [1]: 31.6 µM [rising, single point]

COc1ccc(CCNC(=O)CCSc2nc(-c3ccco3)cc(C(F)(F)F)n2)cc1OC
AC50 [1]: 14.1 µM [rising, single point]

Cc1ccc(N2CCN(CCc3nc4cc(NS(C)(=O)=O)ccc4n3C)CC2)cc1
AC50 [1]: 31.6 µM [rising, single point]

COCCn1c(SCC(=O)Nc2cc(Cl)ccc2OC)nc2c([nH]c3ccccc32)c1=O
AC50 [1]: 35.5 µM [falling, single point]

Cn1c(=O)c2nc(SCC(=O)Nc3ccc(OC(F)(F)F)cc3)n(C)c2n(C)c1=O
AC50 [2]: 35.5 µM [rising, partial curve, poor fit]

Cc1nn(-c2ccccc2)c(Cl)c1/C=N/N1CCN(c2ccccn2)CC1
AC50 [2]: 0.0316 µM [rising, full curve, poor fit]

CC1CCCC(C)N1C(=O)c1ccccc1Nc1ccc(SC(F)F)cc1 (centres undefined)
AC50 [2]: 22.4 µM [falling, single point]
AC50 [1]: 11.2 µM [falling, partial curve]

CC(/C=N/NC(=O)CSc1nc(C)cc(C)n1)=C\c1ccccc1
AC50 [1]: 35.5 µM [rising, single point]

CC1=NOC(=O)/C1=C/c1ccc(-c2ccc(Cl)cc2)o1
AC50 [1]: 28.2 µM [rising, single point]

COc1cccc(NC(=O)NC2(C(F)(F)F)Oc3ccccc3O2)c1
AC50 [1]: 17.8 µM [rising, single point]

CCN(CC)CCCNC(=O)N[C@@H](Cc1ccccc1)C(=O)O
AC50 [2]: 35.5 µM [rising, single point]
AC50 [1]: 35.5 µM [rising, single point]

Cc1ccc(C#N)c(SCc2nnc(-c3ccc(Cl)cc3)o2)n1
AC50 [2]: 0.0224 µM [rising, full curve, poor fit]
AC50 [1]: 0.0224 µM [rising, full curve, poor fit]

CC1(C)C2C/C(=N\O)C(C)(/[N+]([O-])=C/c3cccc([N+](=O)[O-])c3)CC21 (centres undefined)
AC50 [2]: 14.1 µM [falling, single point]

O=C(c1ccc(F)cc1F)N(Cc1ccccn1)Cc1ccco1
AC50 [1]: 10 µM [falling, single point]

CC1CN(C(=O)/C=C/c2ccc([N+](=O)[O-])s2)CC(C)O1 (centres undefined)
AC50 [2]: 35.5 µM [falling, single point]
AC50 [1]: 8.91 µM [falling, partial curve, poor fit]

CC(=O)c1cccc(NC(=O)Cc2coc3cc4c(cc23)CCC4)c1
AC50 [2]: 14.1 µM [rising, single point]
AC50 [1]: 25.1 µM [rising, partial curve]

Cc1cc(NC(=O)/C=C/c2ccc(Br)cc2)no1
AC50 [1]: 5.62 µM [rising, partial curve, poor fit]

CC1CCCN(CCCNC(=O)c2cc(Sc3ccc(F)cc3)nc3ccccc23)C1 (centres undefined)
AC50 [2]: 35.5 µM [falling, single point]

COc1ccccc1OCc1ccc(C(=O)Nc2ccncc2)o1
AC50 [1]: 22.4 µM [rising, partial curve, poor fit]

O=C(COC(=O)c1ccco1)NCc1ccccc1Cl
AC50 [1]: 0.562 µM [rising, partial curve, poor fit]

COc1cccc(-c2nnc(SCc3ccc(C#N)cc3)n2Cc2ccco2)c1
AC50 [2]: 11.2 µM [rising, partial curve, poor fit]
AC50 [1]: 11.2 µM [rising, partial curve]

COc1ccc(-c2c(C#N)c(SCC(=O)c3cc4ccccc4oc3=O)nc(C)c2C(=O)Nc2ccccc2)cc1
AC50 [1]: 7.08 µM [rising, partial curve]

CCn1c(SCC(=O)N2CCCC2)nc2ccccc21
AC50 [1]: 5.62 µM [rising, partial curve]

Cc1ccc(Cl)cc1-c1ccc(C=Nc2ccc(N3CCOCC3)cc2)o1
AC50 [1]: 15.8 µM [rising, single point]

O=C(Cc1ccccc1)Nc1ccccc1Oc1ccccc1
AC50 [2]: 12.6 µM [rising, single point]

CNC(=O)CN(c1cc(OCCOC)c(Cl)cc1Cl)S(=O)(=O)c1ccccc1
AC50 [2]: 14.1 µM [falling, single point]

N#Cc1c(-c2ccc(F)cc2)ccnc1N1CCOCC1
AC50 [1]: 0.0251 µM [falling, full curve, poor fit]

Cc1ccccc1Cn1ccc(NC(=O)CCSc2nc(-c3ccco3)cc(C(F)(F)F)n2)n1
AC50 [1]: 12.6 µM [rising, single point]

Cc1cc(=O)[nH]c(N/N=C/c2c(C)nn(-c3ccccc3Cl)c2Cl)n1
AC50 [1]: 31.6 µM [rising, single point]

O=C(NC1CCCCCCC1)c1ccc2c(c1)N(Cc1ccc(F)cc1)C(=O)CS2=O (centres undefined)
AC50 [2]: 15.8 µM [rising, single point]

Cc1ccc(N2CCN(C(=O)c3nn(C)c4c3CS(=O)(=O)c3ccccc3-4)CC2)c(C)c1
AC50 [1]: 0.00355 µM [falling, full curve, poor fit]

CC[C@H]1OC(=O)[C@H](C)[C@@H](O[C@H]2C[C@@](C)(OC)[C@@H](O)[C@H](C)O2)C(C)[C@@H](O[C@@H]2O[C@H](C)C[C@H](N(C)C)[C@@H]2O)[C@](C)(OC)C[C@@H](C)C(=O)[C@H](C)[C@@H](O)[C@]1(C)O (some centres undefined)
AC50 [2]: 14.1 µM [rising, single point]

CCN(CC)S(=O)(=O)c1cccc(C(=O)Nc2cccc(C)c2)c1
AC50 [1]: 28.2 µM [rising, single point]

COc1ccc(NC(=S)N(Cc2cccnc2)Cc2ccco2)cc1
AC50 [2]: 2 µM [falling, partial curve, poor fit]

O=C(CCc1ccccc1)Nc1ccc(Cl)cn1
AC50 [1]: 8.91 µM [rising, partial curve, poor fit]

Cc1cccc(NC(=O)Cn2nc(-c3ccccc3)c3cnc4ccccc4c32)c1
AC50 [2]: 12.6 µM [falling, partial curve]
AC50 [1]: 20 µM [falling, partial curve, poor fit]

Source: PubChem BioAssay AID1487 (National Center for Advancing Translational Sciences (NCATS), 2009)
